# Measurements reported in the supplement of paper PMC12819154, “High-throughput peptide-centric local stability assay extends protein–ligand identification to membrane proteins, tissues and bacteria” (Nature Structural & Molecular Biology, 2025).
# By UniProt entry, the sequences of proteins in these tests, tags left out. Where a name states a change or a piece, a line headed by the entry shows the natural chain unless it says otherwise.
# UniProt P97825: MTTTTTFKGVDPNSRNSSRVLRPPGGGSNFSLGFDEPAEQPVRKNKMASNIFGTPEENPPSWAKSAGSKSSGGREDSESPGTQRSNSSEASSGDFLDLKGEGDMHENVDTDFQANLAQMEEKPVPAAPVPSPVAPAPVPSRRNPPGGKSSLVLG
# UniProt P97868: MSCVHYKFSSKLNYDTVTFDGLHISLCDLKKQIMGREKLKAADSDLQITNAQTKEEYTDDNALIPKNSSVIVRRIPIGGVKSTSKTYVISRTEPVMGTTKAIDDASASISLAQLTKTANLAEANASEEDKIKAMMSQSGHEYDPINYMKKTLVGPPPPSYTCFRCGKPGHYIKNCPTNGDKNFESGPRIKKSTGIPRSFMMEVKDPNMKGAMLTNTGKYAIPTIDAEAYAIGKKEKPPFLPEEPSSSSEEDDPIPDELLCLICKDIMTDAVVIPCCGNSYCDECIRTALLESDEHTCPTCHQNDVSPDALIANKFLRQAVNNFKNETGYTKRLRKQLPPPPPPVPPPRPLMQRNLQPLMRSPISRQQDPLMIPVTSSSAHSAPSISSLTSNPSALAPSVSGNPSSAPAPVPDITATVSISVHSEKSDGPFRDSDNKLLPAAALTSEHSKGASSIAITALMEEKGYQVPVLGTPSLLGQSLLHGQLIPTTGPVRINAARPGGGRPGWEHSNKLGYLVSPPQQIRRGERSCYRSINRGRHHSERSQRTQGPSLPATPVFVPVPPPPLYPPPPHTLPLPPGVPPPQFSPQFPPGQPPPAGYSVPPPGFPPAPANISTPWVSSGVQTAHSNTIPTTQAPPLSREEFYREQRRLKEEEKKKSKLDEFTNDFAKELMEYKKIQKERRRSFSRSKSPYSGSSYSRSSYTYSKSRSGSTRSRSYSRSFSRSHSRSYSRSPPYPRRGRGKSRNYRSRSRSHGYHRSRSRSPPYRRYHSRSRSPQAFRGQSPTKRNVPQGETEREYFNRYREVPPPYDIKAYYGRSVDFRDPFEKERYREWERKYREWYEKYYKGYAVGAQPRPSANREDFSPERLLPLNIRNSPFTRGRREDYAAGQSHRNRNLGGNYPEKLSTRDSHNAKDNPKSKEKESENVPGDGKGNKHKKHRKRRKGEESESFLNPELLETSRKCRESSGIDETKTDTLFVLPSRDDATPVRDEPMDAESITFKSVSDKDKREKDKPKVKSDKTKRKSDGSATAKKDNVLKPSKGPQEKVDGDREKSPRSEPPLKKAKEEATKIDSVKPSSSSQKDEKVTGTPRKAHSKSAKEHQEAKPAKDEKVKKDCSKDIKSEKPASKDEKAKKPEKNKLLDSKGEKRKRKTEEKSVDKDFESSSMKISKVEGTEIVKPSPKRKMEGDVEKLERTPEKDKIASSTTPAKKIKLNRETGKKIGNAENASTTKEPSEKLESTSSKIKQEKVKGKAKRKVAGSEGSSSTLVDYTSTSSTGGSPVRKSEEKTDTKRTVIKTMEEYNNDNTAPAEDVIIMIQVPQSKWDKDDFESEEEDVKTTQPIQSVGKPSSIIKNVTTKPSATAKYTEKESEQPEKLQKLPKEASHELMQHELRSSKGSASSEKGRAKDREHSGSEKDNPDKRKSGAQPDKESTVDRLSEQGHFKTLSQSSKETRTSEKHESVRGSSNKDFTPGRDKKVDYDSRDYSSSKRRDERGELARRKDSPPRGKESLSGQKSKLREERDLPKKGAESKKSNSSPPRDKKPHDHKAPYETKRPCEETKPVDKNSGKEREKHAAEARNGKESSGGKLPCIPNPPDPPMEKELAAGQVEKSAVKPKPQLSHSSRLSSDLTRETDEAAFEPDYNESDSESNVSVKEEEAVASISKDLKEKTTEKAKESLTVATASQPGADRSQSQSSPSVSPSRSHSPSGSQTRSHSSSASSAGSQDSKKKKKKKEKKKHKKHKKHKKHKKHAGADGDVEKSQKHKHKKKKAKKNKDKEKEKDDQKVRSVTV
# UniProt Q01338, whole entry: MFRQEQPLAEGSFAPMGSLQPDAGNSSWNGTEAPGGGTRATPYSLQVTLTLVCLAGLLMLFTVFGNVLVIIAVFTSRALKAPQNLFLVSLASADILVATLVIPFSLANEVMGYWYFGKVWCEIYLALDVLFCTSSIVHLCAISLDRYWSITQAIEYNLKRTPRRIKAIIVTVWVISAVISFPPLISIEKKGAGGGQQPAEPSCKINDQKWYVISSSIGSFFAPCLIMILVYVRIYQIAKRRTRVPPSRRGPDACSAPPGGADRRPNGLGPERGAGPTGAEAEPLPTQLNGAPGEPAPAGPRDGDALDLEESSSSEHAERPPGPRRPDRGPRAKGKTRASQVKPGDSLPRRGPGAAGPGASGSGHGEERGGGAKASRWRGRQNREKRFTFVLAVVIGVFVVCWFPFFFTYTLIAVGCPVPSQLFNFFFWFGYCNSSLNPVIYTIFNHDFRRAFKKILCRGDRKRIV
# UniProt P70403: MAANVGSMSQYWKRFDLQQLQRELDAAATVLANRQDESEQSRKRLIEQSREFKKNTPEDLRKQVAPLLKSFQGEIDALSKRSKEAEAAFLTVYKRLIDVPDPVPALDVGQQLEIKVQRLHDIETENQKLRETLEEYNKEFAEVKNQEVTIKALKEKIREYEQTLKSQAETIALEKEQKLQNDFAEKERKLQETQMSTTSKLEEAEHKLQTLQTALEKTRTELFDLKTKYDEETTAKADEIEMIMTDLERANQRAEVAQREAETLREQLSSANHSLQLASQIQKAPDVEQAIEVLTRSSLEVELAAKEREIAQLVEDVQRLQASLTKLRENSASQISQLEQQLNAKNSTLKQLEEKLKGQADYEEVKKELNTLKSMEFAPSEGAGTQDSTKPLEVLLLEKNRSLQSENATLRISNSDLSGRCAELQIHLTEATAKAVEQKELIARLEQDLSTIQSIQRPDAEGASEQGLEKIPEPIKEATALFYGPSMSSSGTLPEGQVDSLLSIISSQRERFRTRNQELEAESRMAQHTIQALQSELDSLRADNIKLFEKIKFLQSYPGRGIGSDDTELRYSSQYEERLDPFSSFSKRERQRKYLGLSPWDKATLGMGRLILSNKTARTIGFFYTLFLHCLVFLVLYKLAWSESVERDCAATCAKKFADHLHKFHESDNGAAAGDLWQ
# UniProt P63254: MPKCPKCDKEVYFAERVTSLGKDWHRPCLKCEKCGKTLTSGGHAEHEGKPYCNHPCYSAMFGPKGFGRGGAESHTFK
# UniProt P70335: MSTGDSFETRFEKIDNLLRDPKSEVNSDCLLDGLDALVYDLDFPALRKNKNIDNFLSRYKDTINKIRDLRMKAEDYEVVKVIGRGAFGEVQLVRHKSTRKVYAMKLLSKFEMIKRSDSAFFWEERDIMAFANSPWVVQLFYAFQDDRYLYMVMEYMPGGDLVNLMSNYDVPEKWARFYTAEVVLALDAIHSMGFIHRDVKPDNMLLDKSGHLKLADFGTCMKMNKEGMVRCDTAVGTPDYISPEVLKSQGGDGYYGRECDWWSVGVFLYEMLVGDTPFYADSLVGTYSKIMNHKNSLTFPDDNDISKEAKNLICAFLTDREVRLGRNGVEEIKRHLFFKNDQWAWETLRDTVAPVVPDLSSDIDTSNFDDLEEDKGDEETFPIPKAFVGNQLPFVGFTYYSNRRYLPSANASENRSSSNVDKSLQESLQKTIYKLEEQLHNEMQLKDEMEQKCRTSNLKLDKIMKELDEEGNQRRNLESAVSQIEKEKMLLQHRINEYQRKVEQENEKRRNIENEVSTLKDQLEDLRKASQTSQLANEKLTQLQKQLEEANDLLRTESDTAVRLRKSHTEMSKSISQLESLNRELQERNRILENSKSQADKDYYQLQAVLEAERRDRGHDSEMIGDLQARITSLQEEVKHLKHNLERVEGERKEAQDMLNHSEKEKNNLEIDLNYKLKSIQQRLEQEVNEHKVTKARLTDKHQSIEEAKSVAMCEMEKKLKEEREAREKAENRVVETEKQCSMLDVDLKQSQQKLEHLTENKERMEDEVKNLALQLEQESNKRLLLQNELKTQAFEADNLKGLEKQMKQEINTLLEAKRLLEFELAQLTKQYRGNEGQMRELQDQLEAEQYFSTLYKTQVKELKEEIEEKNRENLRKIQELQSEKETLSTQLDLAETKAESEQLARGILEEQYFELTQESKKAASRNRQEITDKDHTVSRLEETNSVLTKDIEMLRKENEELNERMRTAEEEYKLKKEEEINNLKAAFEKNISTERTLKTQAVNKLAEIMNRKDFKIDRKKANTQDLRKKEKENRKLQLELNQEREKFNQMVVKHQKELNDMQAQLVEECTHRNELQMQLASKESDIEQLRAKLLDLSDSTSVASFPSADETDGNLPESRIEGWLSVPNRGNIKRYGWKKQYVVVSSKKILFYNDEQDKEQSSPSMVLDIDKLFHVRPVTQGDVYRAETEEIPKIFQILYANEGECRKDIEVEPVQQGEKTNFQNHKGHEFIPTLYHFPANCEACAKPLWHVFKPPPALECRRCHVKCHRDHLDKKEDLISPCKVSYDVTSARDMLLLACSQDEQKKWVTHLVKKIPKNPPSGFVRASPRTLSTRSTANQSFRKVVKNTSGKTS
# UniProt P97819: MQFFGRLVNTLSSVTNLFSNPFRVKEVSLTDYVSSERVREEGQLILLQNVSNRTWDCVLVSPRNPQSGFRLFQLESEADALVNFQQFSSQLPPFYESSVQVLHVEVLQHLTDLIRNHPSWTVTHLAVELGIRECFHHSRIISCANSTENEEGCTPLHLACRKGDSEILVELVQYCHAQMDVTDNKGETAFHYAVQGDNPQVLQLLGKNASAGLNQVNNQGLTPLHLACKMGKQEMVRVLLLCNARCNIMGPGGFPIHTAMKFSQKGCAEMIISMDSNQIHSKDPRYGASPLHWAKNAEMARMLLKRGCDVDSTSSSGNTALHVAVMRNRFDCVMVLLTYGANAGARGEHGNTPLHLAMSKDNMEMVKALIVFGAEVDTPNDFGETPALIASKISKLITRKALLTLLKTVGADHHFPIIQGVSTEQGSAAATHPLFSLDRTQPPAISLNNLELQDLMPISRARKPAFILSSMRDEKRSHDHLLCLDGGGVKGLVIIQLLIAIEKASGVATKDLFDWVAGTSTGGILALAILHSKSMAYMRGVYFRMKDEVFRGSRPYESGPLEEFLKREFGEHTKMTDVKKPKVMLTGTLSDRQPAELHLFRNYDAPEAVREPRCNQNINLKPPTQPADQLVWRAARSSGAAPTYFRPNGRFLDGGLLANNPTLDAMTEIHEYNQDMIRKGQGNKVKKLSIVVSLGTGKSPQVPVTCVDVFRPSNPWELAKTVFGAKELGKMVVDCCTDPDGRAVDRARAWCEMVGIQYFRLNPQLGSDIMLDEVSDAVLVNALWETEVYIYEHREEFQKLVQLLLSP
# UniProt P97452: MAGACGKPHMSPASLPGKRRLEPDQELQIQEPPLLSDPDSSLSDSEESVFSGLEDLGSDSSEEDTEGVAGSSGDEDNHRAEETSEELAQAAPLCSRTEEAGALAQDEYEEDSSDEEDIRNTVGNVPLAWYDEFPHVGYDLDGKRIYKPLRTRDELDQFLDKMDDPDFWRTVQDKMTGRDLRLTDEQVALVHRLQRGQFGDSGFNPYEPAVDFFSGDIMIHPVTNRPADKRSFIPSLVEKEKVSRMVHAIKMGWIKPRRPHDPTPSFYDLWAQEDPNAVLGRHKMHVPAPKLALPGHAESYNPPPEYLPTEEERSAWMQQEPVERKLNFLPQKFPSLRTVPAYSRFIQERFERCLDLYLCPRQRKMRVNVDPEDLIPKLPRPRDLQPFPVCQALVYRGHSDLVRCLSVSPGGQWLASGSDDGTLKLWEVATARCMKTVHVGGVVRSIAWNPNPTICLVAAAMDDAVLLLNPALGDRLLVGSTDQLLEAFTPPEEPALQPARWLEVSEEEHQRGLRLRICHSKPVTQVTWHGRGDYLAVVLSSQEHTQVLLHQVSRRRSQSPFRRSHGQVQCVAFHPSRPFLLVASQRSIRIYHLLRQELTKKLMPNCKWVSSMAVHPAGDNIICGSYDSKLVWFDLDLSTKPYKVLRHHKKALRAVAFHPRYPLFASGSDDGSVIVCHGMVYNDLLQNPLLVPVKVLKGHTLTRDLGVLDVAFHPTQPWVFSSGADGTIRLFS
# UniProt P97348: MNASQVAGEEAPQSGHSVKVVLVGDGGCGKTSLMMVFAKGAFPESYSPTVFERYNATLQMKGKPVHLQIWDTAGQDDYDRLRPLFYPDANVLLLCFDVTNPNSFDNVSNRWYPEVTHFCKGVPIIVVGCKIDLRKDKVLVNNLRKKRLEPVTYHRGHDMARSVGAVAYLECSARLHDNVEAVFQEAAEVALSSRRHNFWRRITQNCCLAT
# UniProt P70224: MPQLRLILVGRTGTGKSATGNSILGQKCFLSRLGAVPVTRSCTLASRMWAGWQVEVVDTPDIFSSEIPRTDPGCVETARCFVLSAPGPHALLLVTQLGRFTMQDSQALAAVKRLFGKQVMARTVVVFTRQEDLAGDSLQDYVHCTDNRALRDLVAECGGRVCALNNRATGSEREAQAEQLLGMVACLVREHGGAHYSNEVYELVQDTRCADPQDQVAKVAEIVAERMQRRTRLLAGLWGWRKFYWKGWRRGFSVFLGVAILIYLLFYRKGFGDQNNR
# The list shows a part of the results. Small differences around the control level are noise.
# Compound: CN[C@@H]1C[C@H]2O[C@@](C)([C@@H]1OC)n1c3ccccc3c3c4c(c5c6ccccc6n2c5c31)C(=O)NC4 [staurosporine]
# Experiment: log2 fold change of tryptic peptide abundance, ligand vs vehicle (limited proteolysis) (log2 ratio); higher = more trypsin-susceptible (destabilized)
# Conditions: ligand concentration: 20 uM; sample: mouse liver crude lysate; replicate design: treated separately
row,Target,log2 fold change
1,"UniProt Q01405 (peptide sequence: HLLQAPVDDAQEILHSR, peptide start residue: 683)",0.205
2,"UniProt Q01341 (peptide sequence: LHLQHENR, peptide start residue: 327)",-0.389
3,"UniProt P97825 (peptide sequence: SSGGREDSESPGTQR, peptide start residue: 70)",-0.101
4,"UniProt P97298 (peptide sequence: VPMMSDPK, peptide start residue: 240)",0.557
5,"UniProt P97868 (peptide sequence: DPFEKER, peptide start residue: 821)",-0.282
6,"UniProt Q01338 (peptide sequence: GKTRASQVK, peptide start residue: 334)",0.0153
7,"UniProt P97789 (peptide sequence: YNPGYVLAGR, peptide start residue: 911)",0.52
8,"UniProt P97364 (peptide sequence: SSKYGEGHQAWIVGIVEKGNR, peptide start residue: 395)",-0.318
9,"UniProt P70365 (peptide sequence: ELYSQQHR, peptide start residue: 1121)",-0.45
10,"UniProt P97432 (peptide sequence: SLTLDAAPDHNPPCR, peptide start residue: 657)",-0.484
11,"UniProt P80314 (peptide sequence: KIHPQTIISGWR, peptide start residue: 120)",-0.382
12,"UniProt P70403 (peptide sequence: LDPFSSFSKR, peptide start residue: 579)",0.332
13,"UniProt P98078 (peptide sequence: AKLIGIDDVPDAR, peptide start residue: 52)",-0.398
14,"UniProt P97325 (peptide sequence: VSASDGFWK, peptide start residue: 247)",-0.0267
15,"UniProt P70663 (peptide sequence: HGGYLNEK, peptide start residue: 531)",-0.588
16,"UniProt P63254 (peptide sequence: PKCPKCDK, peptide start residue: 2)",-0.468
17,"UniProt P68254 (peptide sequence: YDDMATCMK, peptide start residue: 19)",0.132
18,"UniProt Q00262 (peptide sequence: NVVNSVDYVEHAKEETK, peptide start residue: 236)",0.161

# Part of the list above, set out differently.
row | Target | log2 fold change
17 | UniProt P68254 (peptide sequence: YDDMATCMK, peptide start residue: 19) | 0.132
18 | UniProt Q00262 (peptide sequence: NVVNSVDYVEHAKEETK, peptide start residue: 236) | 0.161

# Going on with the list:

row,Target,log2 fold change
1,"UniProt Q00977 (peptide sequence: NEFKDIEEIKTQK, peptide start residue: 113)",-0.156
2,"UniProt P70335 (peptide sequence: EAQDMLNHSEKEK, peptide start residue: 654)",0.236
3,"UniProt P63321 (peptide sequence: VIMVGSGGVGK, peptide start residue: 17)",0.257
4,"UniProt P70284 (peptide sequence: RAAEMELQAK, peptide start residue: 260)",-0.126
5,"UniProt P97499 (peptide sequence: ASPFPSNTTLMK, peptide start residue: 590)",0.542
6,"UniProt P82347 (peptide sequence: VLTQLVTGPK, peptide start residue: 120)",-0.365
7,"UniProt P97819 (peptide sequence: GEHGNTPLHLAMSK, peptide start residue: 347)",0.346
8,"UniProt P97452 (peptide sequence: KLNFLPQKFPSLR, peptide start residue: 325)",-0.148
9,"UniProt P97792 (peptide sequence: MGAVPVMIPAQSK, peptide start residue: 348)",-0.0612
10,"UniProt P97471 (peptide sequence: WPDLHKNELK, peptide start residue: 101)",0.525
11,"UniProt P82198 (peptide sequence: NSLCIENSCIAAHDKR, peptide start residue: 470)",-0.304
12,"UniProt P70178 (peptide sequence: LDEAQSEAPETK, peptide start residue: 387)",0.0499
13,"UniProt P97493 (peptide sequence: FVGIKDEDQLEAFLKK, peptide start residue: 148)",0.243
14,"UniProt P70399 (peptide sequence: AADISLDNLVEGK, peptide start residue: 1611)",0.266
15,"UniProt P97313 (peptide sequence: LLEEALLR, peptide start residue: 2893)",0.233
16,"UniProt P97348 (peptide sequence: VVLVGDGGCGK, peptide start residue: 20)",-0.11
17,"UniProt P70318 (peptide sequence: FEDVVNQSSPK, peptide start residue: 210)",-0.73
18,"UniProt P70224 (peptide sequence: CADPQDQVAK, peptide start residue: 209)",0.257
